No constants are given. Whether binding was seen depends on the method and setting. Some binding calls cover weakened binding; strength is not graded here.
Target: rhesus PD-L1-Fc fusion protein (Sino Biological cat #90251-C02H) (rhesus) (UniProt F6PJN1)
Experiment: SPR (Biacore T200), PD-L1-Fc immobilized, IgG in solution

binding: binds
B1: TY21421 (antibody, V domains shown)
VH: EVQLVESGGGLVQPGGSLRLSCAASGYSISSGYYWGWIRQAPGKGLEWIGIIYPSGGGTNYAQKFQGRVTISRDNSKNTLYLQLNSLRAEDTAVYYCARGGGLGFDYWGQGTLVTVSS
VL: DIQLTQSPSSLSASVGDRVTITCRASQSIPSFLNWYQQKPGKAPKLLIYAASSLQSGVPSRFSGSGSGTDFTLTISSLQPEDFATYYCQHYISWPRQFTFGQGTKVEIKR
